Test results taken from paper PMC6771244, “VSTM2A suppresses colorectal cancer and antagonizes Wnt signaling receptor LRP6” (Theranostics, 2019).
These are yes or no findings as the source states them, for the method shown. Binding seen in cells or lysates may run through a third protein. Some results given as binding are weak or reduced against the parent protein; the word gives no strength. For some assays here: Where a sequence is shown, tags or fusion partners need not be part of it.

Sequences of proteins named here, by UniProt entry; tags and fusion partners are left off. Residues count along the entry.
UniProt O75581, residues 20-1613: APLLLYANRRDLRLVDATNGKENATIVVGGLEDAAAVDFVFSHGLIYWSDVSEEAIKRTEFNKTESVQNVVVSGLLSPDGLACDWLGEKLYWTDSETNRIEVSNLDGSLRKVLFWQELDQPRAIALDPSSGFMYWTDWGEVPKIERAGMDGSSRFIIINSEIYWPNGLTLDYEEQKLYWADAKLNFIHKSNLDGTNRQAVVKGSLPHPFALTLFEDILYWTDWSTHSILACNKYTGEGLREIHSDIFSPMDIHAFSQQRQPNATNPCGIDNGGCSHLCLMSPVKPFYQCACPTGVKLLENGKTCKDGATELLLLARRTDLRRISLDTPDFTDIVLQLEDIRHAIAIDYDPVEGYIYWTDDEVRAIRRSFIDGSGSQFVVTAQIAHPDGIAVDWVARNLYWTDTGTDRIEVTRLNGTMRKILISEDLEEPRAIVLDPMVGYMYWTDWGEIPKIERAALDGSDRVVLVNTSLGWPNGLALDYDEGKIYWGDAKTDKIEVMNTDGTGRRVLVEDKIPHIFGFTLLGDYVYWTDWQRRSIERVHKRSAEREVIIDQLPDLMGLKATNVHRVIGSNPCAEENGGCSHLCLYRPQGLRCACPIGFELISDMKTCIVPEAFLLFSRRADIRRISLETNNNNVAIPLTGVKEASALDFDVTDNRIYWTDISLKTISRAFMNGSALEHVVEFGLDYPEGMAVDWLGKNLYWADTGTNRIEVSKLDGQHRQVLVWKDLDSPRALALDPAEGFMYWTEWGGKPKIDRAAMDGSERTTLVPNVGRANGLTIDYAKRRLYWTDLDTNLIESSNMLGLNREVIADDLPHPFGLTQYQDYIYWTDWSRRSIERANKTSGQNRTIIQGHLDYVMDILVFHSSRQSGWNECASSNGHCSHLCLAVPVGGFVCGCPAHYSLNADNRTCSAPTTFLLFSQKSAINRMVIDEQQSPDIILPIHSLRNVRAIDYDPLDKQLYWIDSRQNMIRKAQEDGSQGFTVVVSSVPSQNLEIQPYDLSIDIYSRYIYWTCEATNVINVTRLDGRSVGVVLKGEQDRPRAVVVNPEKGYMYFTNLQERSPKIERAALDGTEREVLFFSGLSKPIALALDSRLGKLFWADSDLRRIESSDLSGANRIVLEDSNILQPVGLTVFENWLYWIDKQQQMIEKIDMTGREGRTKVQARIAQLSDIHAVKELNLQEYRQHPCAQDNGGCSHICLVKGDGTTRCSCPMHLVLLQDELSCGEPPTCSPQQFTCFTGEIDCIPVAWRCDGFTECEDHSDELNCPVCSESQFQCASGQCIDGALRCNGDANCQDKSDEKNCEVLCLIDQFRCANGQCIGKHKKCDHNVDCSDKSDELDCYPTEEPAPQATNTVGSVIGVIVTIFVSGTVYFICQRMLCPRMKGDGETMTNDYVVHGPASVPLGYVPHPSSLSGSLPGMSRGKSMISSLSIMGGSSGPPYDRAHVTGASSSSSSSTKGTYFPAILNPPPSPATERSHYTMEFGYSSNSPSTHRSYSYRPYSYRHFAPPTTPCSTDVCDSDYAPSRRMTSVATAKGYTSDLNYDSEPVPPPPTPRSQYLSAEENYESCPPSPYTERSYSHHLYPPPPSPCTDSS

B1: Recombinant Human VSTM2A His-tag Protein (R&D, 10037-VT) (ligand, UniProt Q8TAG5 25-236, looked up)
chain: SQAKFTEFPRNVTATEGQNVEMSCAFQSGSASVYLEIQWWFLRGPEDLDPGAEGAGAQVELLPDRDPDSDGTKISTVKVQGNDISHKLQISKVRKKDEGLYECRVTDANYGELQEHKAQAYLKVNANSHARRMQAFEASPMWLQDMKPRKNVSAAIPSSIHGSANQRTHSTSSPQVVAKIPKQSPQSGARIATSHGLSVLLLVCGFVKGALL
notes: human VSTM2A, commercial recombinant protein; also called recombinant VSTM2A; VSTM2A pure protein; source: bought: R&D
B2: VSTM2A Δ144-240 (VSTM2A IgV domain) (domain or fragment, UniProt Q8TAG5 25-143)
chain: SQAKFTEFPRNVTATEGQNVEMSCAFQSGSASVYLEIQWWFLRGPEDLDPGAEGAGAQVELLPDRDPDSDGTKISTVKVQGNDISHKLQISKVRKKDEGLYECRVTDANYGELQEHKAQ

Legend:
[1] = target: endogenous LRP6 (co-IP of Figure 4A, third and fourth panels) (UniProt O75581); assay: co-IP; reciprocal IP using recombinant human VSTM2A His-tag and endogenous LRP6; the precipitated partner and the cell line are not told; only the binder purified
[2] = target: HA-tagged LRP6, full length (human) (UniProt O75581); assay: co-IP; immunoprecipitation and immunoblot of full length LRP6 and VSTM2A C terminal deletion (Figure 4J)

| binding [1] | binding [2] | Binder |
| --- | --- | --- |
| binds | – | B1 |
| – | binds | B2 |
